42 sequences from paper PMC7819943, “Rice protein-binding microarrays: a tool to detect cis-acting elements near promoter regions in rice” can be followed below.

Chains of the proteins cited; added tags and fusions are not shown.
UniProt Q0JBA9, entry or part of it: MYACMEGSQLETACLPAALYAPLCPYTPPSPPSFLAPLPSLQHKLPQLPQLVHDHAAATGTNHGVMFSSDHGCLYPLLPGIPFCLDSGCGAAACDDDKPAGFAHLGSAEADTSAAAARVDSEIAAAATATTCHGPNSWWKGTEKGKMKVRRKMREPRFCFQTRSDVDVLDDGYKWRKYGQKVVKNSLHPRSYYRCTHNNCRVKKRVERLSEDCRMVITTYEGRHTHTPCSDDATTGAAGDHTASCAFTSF

This is one part of the list.

The test concerns the target OsWRKY34 (Oryza sativa, UniProt Q0JBA9 1-250). The test can be described thus: protein-binding microarray (RPBM); PBS, 2% BSA, 51.3 ng/ul salmon testes DNA, 50 uM zinc acetate, 200 nM TF, 25 C, 1 h; high values mean tight binding. Conditions: protein: recombinant; tags: N-terminal polyhistidine and DsRed monomer fusion (pET32a); label: CyDye5-dUTP incorporated in the synthesized complementary strand; 3' TTTTT single-stranded linker to array surface; dsDNA, one strand shown. The gist of the method: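 Binding signal here means per-feature fluorescence intensity in arbitrary units. The values were read on an Axon 4000B scanner after a custom Agilent array, double-stranded by primer extension with Cy5-dUTP, was incubated with 200 nM protein at 25 °C for 1 h in PBS with 2% BSA, salmon testes DNA and 50 µM zinc acetate, then washed. The proteins were transcription factors with an N-terminal polyhistidine tag and DsRed, expressed in E. coli BL21-CodonPlus and purified on Ni–NTA.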
For the sequence “CTCCTCCACTCCTTCGCCAACGACCTCATCTGCCGCGCCGCGGAGTCACCTAGTGCAG”, the binding signal is 10200 fluorescence intensity (a.u.).

In the case of “TACACTGGGTTGGCGAGCGGGGTGGGCCTGGGCCTCGAGGCGGAGTCACCTAGTGCAG”, the binding signal is 12700 fluorescence intensity (a.u.).

Regarding “CAAGAAGCATGTTCCTCGGTATTTCTCGCTACATCTTATCCGGAGTCACCTAGTGCAG”, the binding signal was 10700 fluorescence intensity (a.u.).

“TTGGTTAGCTACAGTTTCAGTTCGGGGAATCGCCCTATACCGGAGTCACCTAGTGCAG”: the binding signal was 8100 fluorescence intensity (a.u.).

In the case of “AGCCTTCGTTGGTATTGATATGTTTGTGTTATCTTATGTACGGAGTCACCTAGTGCAG”, the binding signal was 8040 fluorescence intensity (a.u.).

Consider “ATTTGTATTTCTATCAGAATTCTTTATTCCTTCGTTTTTTCGGAGTCACCTAGTGCAG”, for which the binding signal is 8840 fluorescence intensity (a.u.).

In the case of “GATCGCTTCACTTTCCACCAAGACTTCACCTGACCTTGCCCGGAGTCACCTAGTGCAG”, the binding signal was 9340 fluorescence intensity (a.u.).

For “ATCCATCATAATTCTTTGCATTATCTTTCTTTGAACACACCGGAGTCACCTAGTGCAG”, the binding signal was 9090 fluorescence intensity (a.u.).

In the case of “TCCGTGTCCAACGTTTGACTTCCCGTCTTATATAATTTTTCGGAGTCACCTAGTGCAG”, the binding signal is 9380 fluorescence intensity (a.u.).

In the case of “CACTCACTCGCTGCCTGCTCAAACACACACACGGCACTCCCGGAGTCACCTAGTGCAG”, the binding signal is 9730 fluorescence intensity (a.u.).

As for “GTCTCCCGTGCTTCACTTGTAGCTATCTACTCCATCTATCCGGAGTCACCTAGTGCAG”, the binding signal is 8380 fluorescence intensity (a.u.).

Take “CTAGTGAGGGGCGGGCGGGCGGGCAAGGGGAGCGGATGGGCGGAGTCACCTAGTGCAG”: the binding signal was 19100 fluorescence intensity (a.u.).

Turning to “CAATTTTCTTTCCATCTCCGTCATTGCACCTCTCATTTAACGGAGTCACCTAGTGCAG”, the binding signal is 13000 fluorescence intensity (a.u.).

In the case of “AACCCGTCTCCGCTTGATCAGGTGCGTCACCCGTGGCGCCCGGAGTCACCTAGTGCAG”, the binding signal is 9490 fluorescence intensity (a.u.).

“ACCCACCTGCATCCACCCCTATCCTCGCGCACGCCGGTCGCGGAGTCACCTAGTGCAG”: the binding signal is 8680 fluorescence intensity (a.u.).

Take “TATTAACATTCTAGTTACTAGCTCTACGTGCATGCACATACGGAGTCACCTAGTGCAG”: the binding signal was 8090 fluorescence intensity (a.u.).

“AGCCCACCACCGACGCCCTCGTTGACATGAAGTTTTATTCCGGAGTCACCTAGTGCAG”: the binding signal was 8850 fluorescence intensity (a.u.).

For the sequence “GCACCAACCATCTCACCCGTCCGACGTGGCAGCAGCAACCCGGAGTCACCTAGTGCAG”, the binding signal is 8770 fluorescence intensity (a.u.).

Consider “AGCCTAGATTATCTCCAGTCTCCTCGGCCAATTCCCGACTCGGAGTCACCTAGTGCAG”, for which the binding signal is 8280 fluorescence intensity (a.u.).

For the sequence “CATTTTTCTTCGATCGTGACATGCCGGGCCAGCCCACCGTCGGAGTCACCTAGTGCAG”, the binding signal was 8390 fluorescence intensity (a.u.).

With “TTGTTTGATCATTCCCTTTCAGCTTTGATTTTCCTGGTATCGGAGTCACCTAGTGCAG”, the binding signal was 8210 fluorescence intensity (a.u.).

In the case of “CCTCCAGATGTTGGGGCGGCGACGGTGTTTGTTGGGGTGGCGGAGTCACCTAGTGCAG”, the binding signal was 11600 fluorescence intensity (a.u.).

On to “AGTGTGTTGATCTCTTAGTTTTTTTCTGTTATTGTTTTACCGGAGTCACCTAGTGCAG”, for which the binding signal is 8550 fluorescence intensity (a.u.).

Turning to “AAGGCTAGTTATTGTTGTGAATGCATTTTCTTGGGCATCTCGGAGTCACCTAGTGCAG”, the binding signal was 11800 fluorescence intensity (a.u.).

As to “TCTCGTTTTGCTCTTCTGTTTCGCTCGCTCTCCTCTCCCTCGGAGTCACCTAGTGCAG”, the binding signal is 12900 fluorescence intensity (a.u.).

For “GTTTCTGTAGCCGGTACTATCAAATGACCCAATTTCTGACCGGAGTCACCTAGTGCAG”, the binding signal was 9440 fluorescence intensity (a.u.).

Regarding “TAGTTTTTTACATATGTATAATTTTTATACTTACGTATACCGGAGTCACCTAGTGCAG”, the binding signal is 8420 fluorescence intensity (a.u.).

On to “GGTGCGGGGTGGCGGTGCTCGGCCACAGCGGCGCGCGGGGCGGAGTCACCTAGTGCAG”, for which the binding signal is 8130 fluorescence intensity (a.u.).

For the sequence “CTCCCGCGAGTCCGCCACCGCAACCACCTCGCCTCGCCCACGGAGTCACCTAGTGCAG”, the binding signal is 8990 fluorescence intensity (a.u.).

For “CCGTGTTGTCGTTCCTCCAAATTTGTACCGTTTTCCCTCTCGGAGTCACCTAGTGCAG”, the binding signal is 8770 fluorescence intensity (a.u.).

In the case of “CCGTCCCCACGTCGCCCACGAACCGCCTTTGCCGCTCGCTCGGAGTCACCTAGTGCAG”, the binding signal is 8690 fluorescence intensity (a.u.).

As to “CCCGAGCCGAAACCGCCTCCGCCTATTCGCGCCACCCACACGGAGTCACCTAGTGCAG”, the binding signal was 8210 fluorescence intensity (a.u.).

As for “ACCAATTACACAGTTCACCAGGAAGTTGCGAAACGAATCTCGGAGTCACCTAGTGCAG”, the binding signal was 8250 fluorescence intensity (a.u.).

“TGGGGTGGTTTTTCCGATGCAGGCTGGGTTGGTTGCCTAGCGGAGTCACCTAGTGCAG”: the binding signal is 8300 fluorescence intensity (a.u.).

“TGTGTTGGGTAATTCGGTTTAGGTACAATAATCTGCCATTCGGAGTCACCTAGTGCAG”: the binding signal is 9600 fluorescence intensity (a.u.).

Take “AAACGGCCATTCCTGTGTTTTTCCTGTGTTTTGTAATCCTCGGAGTCACCTAGTGCAG”: the binding signal is 12800 fluorescence intensity (a.u.).

Take “ATCAATTTGTTTTAGTTTTAATATTCATATTTCATCTTATCGGAGTCACCTAGTGCAG”: the binding signal is 8160 fluorescence intensity (a.u.).

As to “TATCTACTAATTTAACTTATAAATGGGTTTATGGGTTGACCGGAGTCACCTAGTGCAG”, the binding signal is 8600 fluorescence intensity (a.u.).

On to “GCAGCTCAGCCTCAGTGCAACCCACTCGCTCTCTCTCACTCGGAGTCACCTAGTGCAG”, for which the binding signal is 8500 fluorescence intensity (a.u.).

Take “CGTCTGCTCCACCATCCACCACCACCACGCTACGCTTTCCCGGAGTCACCTAGTGCAG”: the binding signal was 10900 fluorescence intensity (a.u.).

Consider “GGCCAGTTATCATCCTACAATAATATTGTTTGGTCCACATCGGAGTCACCTAGTGCAG”, for which the binding signal is 8160 fluorescence intensity (a.u.).

On to “TCGCTACTTACACTCTCCTTCCATCTCCATATATCAAATTCGGAGTCACCTAGTGCAG”, for which the binding signal is 11000 fluorescence intensity (a.u.).
